The list shows only some results of the screen, not a fair sample: it gathers some chemical classes. Not every dose and run of a compound is shown. T/C: endpoint of the treated group in % of that of the vehicle group. For survival time, the PubChem record calls one and a half times the control and up active, and a quarter to a half above the control has no call in these data; cut-offs in other NCI protocols can differ. Some entries show no survivor count and are marked so; the dose need not have been tolerated. Schedules are NCI's codes, taken here to give the interval after Q, in days (D) or hours (H), and the number of doses after X. Marks such as (2×) say how often a value occurs here. Some entries were tested several times; the values are given in rising order.
Test system: CD2F1 mice, L1210 leukemia ip, survival T/C
Assay: NCI In Vivo Anticancer Drug Screen. Data for tumor model L1210 Leukemia (intraperitoneal) in CD2F1 (CDF1) mice
Conditions: T/C endpoint: mean survival time, higher T/C = longer survival
Protocol: The antitumor activity of compounds was measured in mice bearing transplantable tumors. Survival or tumor size were measured and the results are expressed as the measurement made in the treated group (T) divided by the measurement made in the vehicle treated control group (C). The tumor model used in this assay is L1210 Leukemia (intraperitoneal) in CD2F1 (CDF1) mice

[1] = dose: 3.12 mg/kg/injection, schedule: Q01DX009 (ip), vehicle: Klucel (hydroxypropylcellulose) (HPC)
[2] = dose: 6.25 mg/kg/injection, schedule: Q01DX009 (ip), vehicle: Klucel (hydroxypropylcellulose) (HPC)
[3] = dose: 12.5 mg/kg/injection, schedule: Q01DX009 (ip), vehicle: Klucel (hydroxypropylcellulose) (HPC)
[4] = dose: 25.0 mg/kg/injection, schedule: Q01DX009 (ip), vehicle: Klucel (hydroxypropylcellulose) (HPC)
[5] = dose: 50.0 mg/kg/injection, schedule: Q01DX009 (ip), vehicle: Klucel (hydroxypropylcellulose) (HPC)
[6] = dose: 100.0 mg/kg/injection, schedule: Q01DX009 (ip), vehicle: Klucel (hydroxypropylcellulose) (HPC)
[7] = dose: 200.0 mg/kg/injection, schedule: Q01DX009 (ip), vehicle: Klucel (hydroxypropylcellulose) (HPC)
[8] = dose: 400.0 mg/kg/injection, schedule: Q01DX009 (ip), vehicle: Klucel (hydroxypropylcellulose) (HPC)

With `NS(=O)(=O)c1ccc(N(CCCl)CCCl)cc1` as the molecule, how does the T/C [1] read?
Its T/C is 97 % of control [survivor count not shown].

What about the T/C [2] of the same molecule?
Its T/C is 100 % of control [survivor count not shown] (2×).

And the T/C [3]?
Its T/C is 101 [survivor count not shown] and 102 % of control [survivor count not shown].

And the T/C [4]?
Its T/C is 95 [survivor count not shown] and 100 % of control [survivor count not shown] (2×).

And the T/C [5]?
Its T/C is 97 [survivor count not shown] (2×) and 108 % of control [survivor count not shown].

What about the T/C [6] of the same molecule?
Its T/C is 94 [survivor count not shown], 97 [survivor count not shown], 100 % of control [survivor count not shown].

What about the T/C [7] of the same molecule?
Its T/C is 94 [survivor count not shown], 95 [survivor count not shown], 112 % of control [survivor count not shown].

How did the T/C (dose: 12.5 mg/kg/injection, schedule: Q01DX001 (ip), vehicle: saline) turn out when `O=c1c2ccccc2ncn1CCN(CCCl)CCCl` was run?
Its T/C is 96 % of control [survivor count not shown].

And the T/C (dose: 25.0 mg/kg/injection, schedule: Q01DX001 (ip), vehicle: saline)?
The T/C was 101 % of control [survivor count not shown].

And the T/C (dose: 50.0 mg/kg/injection, schedule: Q01DX001 (ip), vehicle: saline)?
The T/C was 106 % of control [survivor count not shown].

What about the T/C (dose: 100.0 mg/kg/injection, schedule: Q01DX001 (ip), vehicle: saline) of the same molecule?
The T/C was 110 % of control [survivor count not shown].

For `S=P(Cl)(Cl)N(CCCl)CCCl`, which T/C (dose: 6.25 mg/kg/injection, schedule: Q01DX009 (ip), vehicle: saline with Tween-80) is on record?
Its T/C is 101 % of control [survivor count not shown].

What about the T/C (dose: 12.5 mg/kg/injection, schedule: Q01DX009 (ip), vehicle: saline with Tween-80) of the same molecule?
Its T/C is 97 % of control [survivor count not shown].

What about the T/C (dose: 25.0 mg/kg/injection, schedule: Q01DX009 (ip), vehicle: saline with Tween-80) of the same molecule?
The T/C was 95 % of control [survivor count not shown].

With `O=P1(N(CCCl)CCCl)NCC(O)CCO1` (stereo not given) as the molecule, how does the T/C (dose: 15.62 mg/kg/injection, schedule: Q01DX001 (ip), vehicle: DMSO) read?
The T/C was 97 % of control [survivor count not shown].

And the T/C (dose: 31.25 mg/kg/injection, schedule: Q01DX001 (ip), vehicle: DMSO)?
Its T/C is 109 % of control [survivor count not shown].

What about the T/C (dose: 62.5 mg/kg/injection, schedule: Q01DX001 (ip), vehicle: DMSO) of the same molecule?
The T/C was 93 % of control [survivor count not shown].

And the T/C (dose: 125.0 mg/kg/injection, schedule: Q01DX001 (ip), vehicle: DMSO)?
The T/C was 101 % of control [survivor count not shown].

And the T/C (dose: 250.0 mg/kg/injection, schedule: Q01DX001 (ip), vehicle: DMSO)?
The T/C was 104 % of control [survivor count not shown].

And the T/C (dose: 500.0 mg/kg/injection, schedule: Q01DX001 (ip), vehicle: DMSO)?
Its T/C is 101 % of control [survivor count not shown].

`ClCCN(CCCl)c1ccc(Oc2ccccc2)cc1` was tested. Which T/C [3] did it give?
The T/C was 94 % of control [survivor count not shown].

And the T/C [4]?
Its T/C is 97 % of control [survivor count not shown].

And the T/C [5]?
The T/C was 95 % of control [survivor count not shown].

What about the T/C [6] of the same molecule?
The T/C was 101 % of control [survivor count not shown].

What about the T/C [7] of the same molecule?
The T/C was 101 % of control [survivor count not shown].

What about the T/C [8] of the same molecule?
The T/C was 100 % of control [survivor count not shown].

What does the source list for `COC1=CC(=O)C(N(CCCl)CCCl)=CC1=O`?
T/C (dose: 1.56 mg/kg/injection, schedule: Q01DX009 (ip), vehicle: Klucel (hydroxypropylcellulose) (HPC)): 111 % of control [survivor count not shown]; T/C [1]: 120 % of control [survivor count not shown]; T/C [2]: 97 [survivor count not shown] and 108 % of control [survivor count not shown]

How did the T/C (dose: 31.8 mg/kg/injection, schedule: Q01DX001 (ip), vehicle: other) turn out when `O=P1(N(CCCl)CCCl)NCc2ccccc2N1` (stereo not given) was run?
The T/C was 102 % of control [survivor count not shown].

And the T/C (dose: 62.5 mg/kg/injection, schedule: Q01DX001 (ip), vehicle: other)?
Its T/C is 100 % of control [survivor count not shown].

And the T/C (dose: 125.0 mg/kg/injection, schedule: Q01DX001 (ip), vehicle: other)?
The T/C was 92 % of control [survivor count not shown].

What about the T/C (dose: 250.0 mg/kg/injection, schedule: Q01DX001 (ip), vehicle: other) of the same molecule?
Its T/C is 93 % of control [survivor count not shown].

What about the T/C (dose: 500.0 mg/kg/injection, schedule: Q01DX001 (ip), vehicle: other) of the same molecule?
Its T/C is 96 % of control [survivor count not shown].

`N#CC(C#N)=Cc1ccc(N(CCCl)CCCl)cc1` was tested. Which T/C [3] did it give?
Its T/C is 97 % of control [survivor count not shown].

What about the T/C [4] of the same molecule?
Its T/C is 93 % of control [survivor count not shown].

What about the T/C [5] of the same molecule?
Its T/C is 91 % of control [survivor count not shown].

What about the T/C [6] of the same molecule?
The T/C was 95 % of control [survivor count not shown].

What about the T/C [7] of the same molecule?
The T/C was 97 % of control [survivor count not shown].

And the T/C [8]?
The T/C was 95 % of control [survivor count not shown].

From PubChem BioAssay AID256 (DTP/NCI, 2004)
